US20190083587A1 (Novo Nordisk, published 2019)
No constants are given. Whether binding was seen depends on the method and setting. Some binding calls cover weakened binding; strength is not graded here. Where a sequence is shown, tags or fusion partners need not be part of it.

Protein sequences, listed by entry. Tags and fused reporters are not part of them. Lines headed by an entry give the natural chain unless they say otherwise; changes in a name come on top.
UniProt P02671: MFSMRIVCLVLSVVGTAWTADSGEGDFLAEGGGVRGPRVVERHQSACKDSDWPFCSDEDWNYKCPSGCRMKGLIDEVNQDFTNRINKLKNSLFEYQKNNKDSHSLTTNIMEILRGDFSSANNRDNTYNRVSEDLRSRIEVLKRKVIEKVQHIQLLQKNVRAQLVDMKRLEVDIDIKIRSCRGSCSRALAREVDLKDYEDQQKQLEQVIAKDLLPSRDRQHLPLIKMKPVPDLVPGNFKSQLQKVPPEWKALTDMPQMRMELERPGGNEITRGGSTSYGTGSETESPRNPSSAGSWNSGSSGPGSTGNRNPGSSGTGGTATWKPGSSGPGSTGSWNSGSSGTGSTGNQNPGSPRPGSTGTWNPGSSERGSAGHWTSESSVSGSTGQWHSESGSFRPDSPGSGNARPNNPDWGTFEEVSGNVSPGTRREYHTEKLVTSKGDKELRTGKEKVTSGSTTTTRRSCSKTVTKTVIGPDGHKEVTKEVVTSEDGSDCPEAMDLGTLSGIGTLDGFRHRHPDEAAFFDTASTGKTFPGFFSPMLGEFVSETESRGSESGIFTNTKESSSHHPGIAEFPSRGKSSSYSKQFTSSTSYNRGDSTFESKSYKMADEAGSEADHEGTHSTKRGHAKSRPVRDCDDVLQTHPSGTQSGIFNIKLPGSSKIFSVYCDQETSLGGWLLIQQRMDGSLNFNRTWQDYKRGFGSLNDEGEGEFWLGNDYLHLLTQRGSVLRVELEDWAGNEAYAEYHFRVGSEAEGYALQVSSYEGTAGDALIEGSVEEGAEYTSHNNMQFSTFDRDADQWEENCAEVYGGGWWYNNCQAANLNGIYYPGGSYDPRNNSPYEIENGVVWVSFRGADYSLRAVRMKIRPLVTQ

Biological target: T1, hTLT-1 ECD-His (human, UniProt Q86YW5 16-162)
T1 construct: Extracellular domain of human TLT-1 with C-terminal His-6 tag; the range 16-168 is computed from these; also called TLT-1-His; His tagged human TLT1
T1 sequence: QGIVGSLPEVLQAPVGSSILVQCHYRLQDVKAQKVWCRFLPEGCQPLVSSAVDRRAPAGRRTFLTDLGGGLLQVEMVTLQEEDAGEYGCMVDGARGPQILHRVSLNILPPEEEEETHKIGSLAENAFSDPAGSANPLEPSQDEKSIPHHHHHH
Test: SPR Biacore T100

With “human fibrinogen (from UniProt P02671 20-629; P02675 31-491; P02679 27-437) (ligand)” the binding was “binds”.
